Reference: the supplement of paper PMC10060354, “Discovery of a small molecule ligand of FRS2 that inhibits invasion and tumor growth” (Cellular Oncology, 2022)
Repeats are few or missing, and single values can be far off.

By UniProt entry, the sequences of proteins in these tests, tags left out. Where a name states a change or a piece, a line headed by the entry shows the natural chain unless it says otherwise.
UniProt Q96S59, whole entry: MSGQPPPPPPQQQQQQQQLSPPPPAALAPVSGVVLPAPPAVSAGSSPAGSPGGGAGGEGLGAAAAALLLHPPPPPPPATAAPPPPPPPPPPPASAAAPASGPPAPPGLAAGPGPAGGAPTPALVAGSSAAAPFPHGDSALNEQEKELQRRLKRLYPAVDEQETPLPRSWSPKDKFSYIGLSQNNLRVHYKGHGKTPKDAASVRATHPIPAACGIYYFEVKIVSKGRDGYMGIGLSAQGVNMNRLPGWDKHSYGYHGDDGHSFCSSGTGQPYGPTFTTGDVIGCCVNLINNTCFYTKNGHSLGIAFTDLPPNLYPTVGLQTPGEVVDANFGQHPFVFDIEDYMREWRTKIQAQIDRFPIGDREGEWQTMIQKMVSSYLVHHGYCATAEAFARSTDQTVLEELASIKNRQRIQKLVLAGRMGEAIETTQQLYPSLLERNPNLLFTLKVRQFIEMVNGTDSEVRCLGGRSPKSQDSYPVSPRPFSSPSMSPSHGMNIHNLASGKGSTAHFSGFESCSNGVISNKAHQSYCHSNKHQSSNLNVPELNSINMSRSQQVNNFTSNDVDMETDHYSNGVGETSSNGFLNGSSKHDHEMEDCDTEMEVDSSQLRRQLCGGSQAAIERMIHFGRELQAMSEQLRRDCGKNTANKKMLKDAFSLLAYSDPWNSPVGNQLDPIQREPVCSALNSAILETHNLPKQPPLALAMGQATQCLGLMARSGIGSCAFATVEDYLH
UniProt P17029: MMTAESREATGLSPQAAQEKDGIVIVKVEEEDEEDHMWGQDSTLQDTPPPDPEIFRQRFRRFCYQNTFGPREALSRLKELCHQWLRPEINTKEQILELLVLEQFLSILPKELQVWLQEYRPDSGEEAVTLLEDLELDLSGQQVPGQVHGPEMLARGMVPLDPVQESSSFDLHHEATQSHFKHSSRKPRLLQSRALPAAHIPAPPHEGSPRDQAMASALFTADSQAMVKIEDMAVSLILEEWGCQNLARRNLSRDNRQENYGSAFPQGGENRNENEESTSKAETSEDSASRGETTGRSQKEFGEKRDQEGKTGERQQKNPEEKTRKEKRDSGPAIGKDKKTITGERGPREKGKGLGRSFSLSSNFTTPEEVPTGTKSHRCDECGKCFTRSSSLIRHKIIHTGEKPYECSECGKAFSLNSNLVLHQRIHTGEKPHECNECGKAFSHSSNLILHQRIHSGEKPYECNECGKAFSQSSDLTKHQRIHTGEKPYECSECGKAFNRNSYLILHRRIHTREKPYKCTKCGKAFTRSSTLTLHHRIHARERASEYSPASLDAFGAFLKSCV
UniProt O60513: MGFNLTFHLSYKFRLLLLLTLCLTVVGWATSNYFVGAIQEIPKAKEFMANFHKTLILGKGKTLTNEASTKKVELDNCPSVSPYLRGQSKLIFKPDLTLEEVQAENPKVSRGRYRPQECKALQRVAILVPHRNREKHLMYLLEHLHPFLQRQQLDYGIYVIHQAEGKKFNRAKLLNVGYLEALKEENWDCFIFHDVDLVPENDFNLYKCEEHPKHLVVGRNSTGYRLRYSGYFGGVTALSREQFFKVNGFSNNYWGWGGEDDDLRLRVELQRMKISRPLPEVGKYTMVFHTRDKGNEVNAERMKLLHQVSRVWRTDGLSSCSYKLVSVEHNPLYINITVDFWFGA
UniProt Q8IWX8: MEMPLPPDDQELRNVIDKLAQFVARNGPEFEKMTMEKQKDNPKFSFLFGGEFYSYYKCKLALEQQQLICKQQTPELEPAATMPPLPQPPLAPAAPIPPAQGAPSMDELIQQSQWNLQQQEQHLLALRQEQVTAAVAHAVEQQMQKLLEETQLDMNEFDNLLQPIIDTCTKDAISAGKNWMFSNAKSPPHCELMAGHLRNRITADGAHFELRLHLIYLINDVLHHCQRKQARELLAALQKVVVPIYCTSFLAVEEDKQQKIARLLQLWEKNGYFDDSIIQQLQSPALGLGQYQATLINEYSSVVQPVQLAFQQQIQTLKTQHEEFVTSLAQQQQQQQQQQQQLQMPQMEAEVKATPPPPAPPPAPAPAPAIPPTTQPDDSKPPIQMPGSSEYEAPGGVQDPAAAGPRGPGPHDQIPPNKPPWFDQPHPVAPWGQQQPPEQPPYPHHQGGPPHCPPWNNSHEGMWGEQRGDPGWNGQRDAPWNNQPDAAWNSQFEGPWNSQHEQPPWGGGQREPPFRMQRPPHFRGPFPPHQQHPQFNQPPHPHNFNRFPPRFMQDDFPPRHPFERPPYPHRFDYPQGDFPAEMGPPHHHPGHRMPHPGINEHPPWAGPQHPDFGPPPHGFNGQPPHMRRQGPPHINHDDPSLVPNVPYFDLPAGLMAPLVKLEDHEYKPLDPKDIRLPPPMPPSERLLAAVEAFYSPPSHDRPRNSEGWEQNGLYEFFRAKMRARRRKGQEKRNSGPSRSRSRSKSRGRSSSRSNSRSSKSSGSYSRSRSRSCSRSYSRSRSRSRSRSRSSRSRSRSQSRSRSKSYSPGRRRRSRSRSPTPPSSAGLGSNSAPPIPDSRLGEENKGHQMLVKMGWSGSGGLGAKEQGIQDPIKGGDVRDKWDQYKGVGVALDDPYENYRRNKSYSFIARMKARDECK
UniProt Q969Z0: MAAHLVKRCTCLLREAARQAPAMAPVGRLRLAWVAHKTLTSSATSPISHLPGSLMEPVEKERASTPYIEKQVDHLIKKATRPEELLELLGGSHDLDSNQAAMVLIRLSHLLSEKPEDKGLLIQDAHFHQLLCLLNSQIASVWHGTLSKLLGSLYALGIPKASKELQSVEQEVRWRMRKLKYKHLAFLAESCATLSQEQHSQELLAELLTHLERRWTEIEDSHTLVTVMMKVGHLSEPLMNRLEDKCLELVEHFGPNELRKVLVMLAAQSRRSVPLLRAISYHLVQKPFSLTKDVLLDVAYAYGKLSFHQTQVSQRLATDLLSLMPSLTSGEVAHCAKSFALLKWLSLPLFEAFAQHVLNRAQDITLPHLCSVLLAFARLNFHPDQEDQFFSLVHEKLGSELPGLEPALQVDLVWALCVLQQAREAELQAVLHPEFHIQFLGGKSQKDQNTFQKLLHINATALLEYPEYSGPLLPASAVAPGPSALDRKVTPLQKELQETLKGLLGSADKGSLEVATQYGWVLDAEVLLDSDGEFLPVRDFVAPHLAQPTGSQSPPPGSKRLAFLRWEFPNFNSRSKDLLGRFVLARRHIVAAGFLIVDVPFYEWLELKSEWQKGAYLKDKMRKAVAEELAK
UniProt O95571: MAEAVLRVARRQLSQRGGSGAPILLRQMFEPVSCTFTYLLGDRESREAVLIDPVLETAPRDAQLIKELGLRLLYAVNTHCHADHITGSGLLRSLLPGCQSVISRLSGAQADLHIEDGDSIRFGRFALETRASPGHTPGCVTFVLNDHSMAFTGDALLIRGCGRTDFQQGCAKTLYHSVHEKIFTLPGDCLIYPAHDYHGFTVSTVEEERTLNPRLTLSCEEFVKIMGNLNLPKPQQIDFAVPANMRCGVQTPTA
UniProt Q13637: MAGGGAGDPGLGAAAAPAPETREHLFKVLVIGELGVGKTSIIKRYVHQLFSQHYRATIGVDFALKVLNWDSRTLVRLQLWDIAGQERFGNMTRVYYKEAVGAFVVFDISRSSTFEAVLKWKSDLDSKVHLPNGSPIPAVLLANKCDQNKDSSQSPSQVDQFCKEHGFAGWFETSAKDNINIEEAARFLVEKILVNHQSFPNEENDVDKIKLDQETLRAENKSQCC
UniProt L0R6Q1: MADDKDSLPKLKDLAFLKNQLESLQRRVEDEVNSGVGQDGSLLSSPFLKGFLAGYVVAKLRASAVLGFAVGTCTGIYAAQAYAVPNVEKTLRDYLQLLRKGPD
UniProt Q9P1F3: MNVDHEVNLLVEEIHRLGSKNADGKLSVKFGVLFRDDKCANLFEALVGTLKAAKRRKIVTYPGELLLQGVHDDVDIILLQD
UniProt Q9NX62: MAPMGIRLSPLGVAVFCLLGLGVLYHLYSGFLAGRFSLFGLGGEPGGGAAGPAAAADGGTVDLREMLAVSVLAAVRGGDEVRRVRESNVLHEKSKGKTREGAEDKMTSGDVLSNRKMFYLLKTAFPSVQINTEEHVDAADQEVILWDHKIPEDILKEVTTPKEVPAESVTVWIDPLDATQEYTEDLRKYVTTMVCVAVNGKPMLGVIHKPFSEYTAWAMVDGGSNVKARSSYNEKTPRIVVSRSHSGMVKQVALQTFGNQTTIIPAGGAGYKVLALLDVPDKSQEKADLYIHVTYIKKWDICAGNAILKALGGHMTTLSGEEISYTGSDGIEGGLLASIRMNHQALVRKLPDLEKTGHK
UniProt Q92769, whole entry: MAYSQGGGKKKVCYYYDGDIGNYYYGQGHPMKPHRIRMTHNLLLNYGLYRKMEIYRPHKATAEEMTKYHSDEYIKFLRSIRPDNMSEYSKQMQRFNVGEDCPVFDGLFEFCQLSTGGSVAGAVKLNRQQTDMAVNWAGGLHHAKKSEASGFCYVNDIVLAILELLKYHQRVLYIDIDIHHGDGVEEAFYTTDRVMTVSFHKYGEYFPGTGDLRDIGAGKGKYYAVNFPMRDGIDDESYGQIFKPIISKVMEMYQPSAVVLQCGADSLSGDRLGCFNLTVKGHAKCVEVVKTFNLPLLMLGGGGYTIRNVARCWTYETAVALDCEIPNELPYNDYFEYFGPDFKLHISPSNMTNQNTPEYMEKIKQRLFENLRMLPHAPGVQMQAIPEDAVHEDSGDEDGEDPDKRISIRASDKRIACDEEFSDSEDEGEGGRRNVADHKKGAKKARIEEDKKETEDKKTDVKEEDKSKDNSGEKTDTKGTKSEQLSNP
UniProt Q9NX01: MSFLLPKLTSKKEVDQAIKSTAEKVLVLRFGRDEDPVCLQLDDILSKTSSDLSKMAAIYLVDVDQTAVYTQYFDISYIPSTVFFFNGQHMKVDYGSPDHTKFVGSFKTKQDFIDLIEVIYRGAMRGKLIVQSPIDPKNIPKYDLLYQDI
UniProt Q9Y2L1: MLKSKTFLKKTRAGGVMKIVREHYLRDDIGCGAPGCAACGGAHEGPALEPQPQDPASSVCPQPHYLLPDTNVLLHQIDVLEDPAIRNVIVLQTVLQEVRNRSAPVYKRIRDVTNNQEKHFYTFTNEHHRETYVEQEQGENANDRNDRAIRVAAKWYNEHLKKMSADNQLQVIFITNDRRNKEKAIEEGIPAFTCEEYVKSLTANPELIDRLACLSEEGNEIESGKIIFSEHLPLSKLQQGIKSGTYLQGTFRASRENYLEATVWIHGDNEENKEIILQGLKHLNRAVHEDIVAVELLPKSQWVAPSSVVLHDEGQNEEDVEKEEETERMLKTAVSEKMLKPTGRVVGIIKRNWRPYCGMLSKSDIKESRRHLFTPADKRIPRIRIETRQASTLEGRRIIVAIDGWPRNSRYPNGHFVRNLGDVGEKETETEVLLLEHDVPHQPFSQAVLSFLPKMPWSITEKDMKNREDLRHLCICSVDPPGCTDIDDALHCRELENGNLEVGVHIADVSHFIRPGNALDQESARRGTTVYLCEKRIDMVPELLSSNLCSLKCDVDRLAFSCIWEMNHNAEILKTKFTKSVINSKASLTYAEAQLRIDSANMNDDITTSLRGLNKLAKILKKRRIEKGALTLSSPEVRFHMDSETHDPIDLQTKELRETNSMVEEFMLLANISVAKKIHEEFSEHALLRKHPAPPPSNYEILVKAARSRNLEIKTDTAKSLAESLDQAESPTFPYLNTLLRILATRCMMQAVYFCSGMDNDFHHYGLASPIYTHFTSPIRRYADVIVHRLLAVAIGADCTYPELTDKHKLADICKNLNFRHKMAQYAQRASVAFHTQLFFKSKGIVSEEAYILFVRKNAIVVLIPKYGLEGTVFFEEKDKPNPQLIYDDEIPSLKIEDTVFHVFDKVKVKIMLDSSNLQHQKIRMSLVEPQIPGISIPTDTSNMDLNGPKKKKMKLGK
UniProt P61163, whole entry: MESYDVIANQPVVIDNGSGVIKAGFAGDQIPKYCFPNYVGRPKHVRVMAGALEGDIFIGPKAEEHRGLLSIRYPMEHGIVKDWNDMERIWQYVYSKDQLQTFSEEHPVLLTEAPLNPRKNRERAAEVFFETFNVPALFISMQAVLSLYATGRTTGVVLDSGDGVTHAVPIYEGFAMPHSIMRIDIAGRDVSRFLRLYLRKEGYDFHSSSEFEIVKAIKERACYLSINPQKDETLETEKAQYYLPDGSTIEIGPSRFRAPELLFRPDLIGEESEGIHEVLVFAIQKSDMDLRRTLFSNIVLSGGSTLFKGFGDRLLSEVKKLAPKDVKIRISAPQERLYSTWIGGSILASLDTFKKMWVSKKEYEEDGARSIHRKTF
UniProt Q9GZZ9, whole entry: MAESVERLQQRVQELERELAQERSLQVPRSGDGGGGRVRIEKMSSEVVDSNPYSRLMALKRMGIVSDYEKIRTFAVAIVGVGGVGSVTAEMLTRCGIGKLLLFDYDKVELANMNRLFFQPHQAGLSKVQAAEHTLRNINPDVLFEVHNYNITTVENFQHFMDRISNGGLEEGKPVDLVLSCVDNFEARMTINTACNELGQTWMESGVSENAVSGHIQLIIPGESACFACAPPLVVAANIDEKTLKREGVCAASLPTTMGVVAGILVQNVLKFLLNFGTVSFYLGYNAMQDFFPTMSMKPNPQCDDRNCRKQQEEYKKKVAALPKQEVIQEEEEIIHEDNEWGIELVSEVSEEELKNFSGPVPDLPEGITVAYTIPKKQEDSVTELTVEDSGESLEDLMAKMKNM

Compound: [O-][N+](C(C1=C(C(O)=C2)NC(C(C=C3)=CC=C3Cl)C4C1C=CC4)=C2Cl)=O
Assay: melting temperature shift (compound 7 minus DMSO); higher = compound stabilises the protein
Conditions: 10 µM
Method: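 Thermal proteome profiling (TMT mass spectrometry) in intact DAOY medulloblastoma cells or DAOY lysates treated with 10 µM compound 7 or DMSO, heated at 10 temperatures from 40.5 to 73.8 °C for 3 min. Melting curves were fitted with the Bioconductor TPP package, and the melting point difference between compound and vehicle is reported per protein (single curve per condition).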

[1] = system: DAOY cell lysate, treatment time: 20 min, 4 °C
[2] = system: intact DAOY cells, treatment time: 90 min, 37 °C

Target	melting temperature shift [1]	melting temperature shift [2]
NARS (UniProt O43776)	-0.533 °C	-1.8 °C
MAD2L1 (UniProt Q13257)	-0.243 °C	-0.421 °C
CBR3 (UniProt O75828)	-0.748 °C	-0.239 °C
UniProt P24821	1.02 °C	0.865 °C
E2F4 (UniProt Q16254)	-0.927 °C	-0.634 °C
RANBP9 (UniProt Q96S59)	-0.0989 °C	-0.637 °C
UniProt Q8N4S0	1.96 °C	
ARFGAP3 (UniProt Q9NP61)	-0.703 °C	-0.173 °C
UniProt Q14195	-0.664 °C	-0.409 °C
ZKSCAN1 (UniProt P17029)	1.15 °C	-1.24 °C
OSBPL2 (UniProt Q9H1P3)	-1.91 °C	
UniProt P47897	-1.1 °C	-0.771 °C
PPP1R7 (UniProt Q15435)	-0.795 °C	1.21 °C
AKR1B1 (UniProt P15121)	-0.496 °C	-0.0617 °C
GANAB (UniProt Q14697)	1.03 °C	0.181 °C
UniProt P48730	-0.565 °C	-0.549 °C
UniProt Q6P2I3		-0.0772 °C
MRPL39 (UniProt Q9NYK5)	0.527 °C	0.0898 °C
UniProt Q969Q0	0.125 °C	-1.35 °C
B4GALT4 (UniProt O60513)	-0.354 °C	
PAG1 (UniProt Q9NWQ8)	-3.71 °C	
UniProt Q9HAU6		0.674 °C
CCPG1 (UniProt Q9ULG6)		-0.324 °C
TOMM34 (UniProt Q15785)	-0.649 °C	-0.833 °C

Target	melting temperature shift [1]	melting temperature shift [2]
ACLY (UniProt P53396)	-0.0791 °C	0.644 °C
UniProt Q460N5	-0.59 °C	3.9 °C
UniProt A8MTA8	-3.32 °C	
UniProt O60759		-0.854 °C
HSPG2 (UniProt P98160)	-1.58 °C	
PSMD5 (UniProt Q16401)		-0.643 °C
LUC7L3 (UniProt O95232)	-0.135 °C	-0.223 °C
CHERP (UniProt Q8IWX8)	-0.135 °C	-0.787 °C
TAOK2 (UniProt Q9UL54)	-3.11 °C	
VPS13A (UniProt Q96RL7)	0.0619 °C	-0.347 °C
FOXRED1 (UniProt Q96CU9)	1.78 °C	-2.28 °C
TBRG4 (UniProt Q969Z0)	-0.711 °C	-0.199 °C
MRPS16 (UniProt Q9Y3D3)	-0.497 °C	-0.864 °C
UniProt P54274	-1.89 °C	
CLPP (UniProt Q16740)	0.612 °C	-0.276 °C
ETHE1 (UniProt O95571)	-0.0939 °C	1.6 °C
MRPL24 (UniProt Q96A35)	0.527 °C	-1.42 °C
UniProt P62341	-1.46 °C	
DHX36 (UniProt Q9H2U1)	0.565 °C	-0.428 °C
UniProt Q5W0U4		-0.72 °C
MOSPD1 (UniProt Q9UJG1)		2.04 °C
MIOS (UniProt Q9NXC5)	0.141 °C	0.309 °C
COQ7 (UniProt Q99807)	1.11 °C	-0.462 °C
UniProt Q9BTM1		0.652 °C

Part of the list above, reformatted:

| Target | melting temperature shift [1] | melting temperature shift [2] |
| --- | --- | --- |
| TOMM34 (UniProt Q15785) | -0.649 °C | -0.833 °C |
| ACLY (UniProt P53396) | -0.0791 °C | 0.644 °C |
| UniProt Q460N5 | -0.59 °C | 3.9 °C |
| UniProt A8MTA8 | -3.32 °C |  |
| UniProt O60759 |  | -0.854 °C |
| HSPG2 (UniProt P98160) | -1.58 °C |  |
| PSMD5 (UniProt Q16401) |  | -0.643 °C |
| LUC7L3 (UniProt O95232) | -0.135 °C | -0.223 °C |
| CHERP (UniProt Q8IWX8) | -0.135 °C | -0.787 °C |
| TAOK2 (UniProt Q9UL54) | -3.11 °C |  |
| VPS13A (UniProt Q96RL7) | 0.0619 °C | -0.347 °C |
| FOXRED1 (UniProt Q96CU9) | 1.78 °C | -2.28 °C |
| TBRG4 (UniProt Q969Z0) | -0.711 °C | -0.199 °C |
| MRPS16 (UniProt Q9Y3D3) | -0.497 °C | -0.864 °C |
| UniProt P54274 | -1.89 °C |  |
| CLPP (UniProt Q16740) | 0.612 °C | -0.276 °C |
| ETHE1 (UniProt O95571) | -0.0939 °C | 1.6 °C |
| UniProt P62341 | -1.46 °C |  |
| DHX36 (UniProt Q9H2U1) | 0.565 °C | -0.428 °C |
| MIOS (UniProt Q9NXC5) | 0.141 °C | 0.309 °C |
| COQ7 (UniProt Q99807) | 1.11 °C | -0.462 °C |
| UniProt Q9BTM1 |  | 0.652 °C |

(next part)

Target	melting temperature shift [1]	melting temperature shift [2]
PSMD14 (UniProt O00487)	-0.609 °C	-1.32 °C
RAB32 (UniProt Q13637)	-0.474 °C	-1.86 °C
UniProt L0R6Q1	4.86 °C	1.6 °C
MAD2L2 (UniProt Q9UI95)		0.17 °C
UniProt Q9P1F3	-3.07 °C	-0.554 °C
IMPAD1 (UniProt Q9NX62)	2.82 °C	0.721 °C
UniProt P15144	2.34 °C	
NUP50 (UniProt Q9UKX7)	-0.229 °C	
UniProt P14317	2.07 °C	
DPM1 (UniProt O60762)	0.788 °C	-0.822 °C
ZC3HAV1L (UniProt Q96H79)	-0.351 °C	
UniProt Q96JD6		0.316 °C
UniProt Q8WVV9	1.12 °C	-0.922 °C
CTSB (UniProt P07858)	-0.0369 °C	-1.38 °C
GOSR1 (UniProt O95249)	1.23 °C	-0.91 °C
VKORC1 (UniProt Q9BQB6)	3.02 °C	3.32 °C
DDB2 (UniProt Q92466)		-0.111 °C
CCDC94 (UniProt Q9BW85)	0.858 °C	-0.678 °C
DDX55 (UniProt Q8NHQ9)	1.52 °C	
UniProt Q9BVR0		2.56 °C
UniProt Q99417	0.713 °C	
SLC25A3 (UniProt Q00325)	1.72 °C	-0.485 °C
UniProt Q9BV81	1.55 °C	
UniProt Q6EKJ0		0.467 °C

Target	melting temperature shift [1]	melting temperature shift [2]
SUOX (UniProt P51687)	-2.07 °C	
LSG1 (UniProt Q9H089)	0.277 °C	2.51 °C
UniProt O15484	-0.332 °C	
ALDH18A1 (UniProt P54886)	0.00953 °C	-0.632 °C
POLA2 (UniProt Q14181)	2.13 °C	-1.33 °C
TOR3A (UniProt Q9H497)	0.738 °C	0.563 °C
RTTN (UniProt Q86VV8)	-0.667 °C	-0.291 °C
NAA15 (UniProt Q9BXJ9)	-0.215 °C	-0.5 °C
UniProt Q13950		-1.27 °C
HDAC2 (UniProt Q92769)	0.154 °C	-0.141 °C
MRPL10 (UniProt Q7Z7H8)	2.99 °C	
PLCG1 (UniProt P19174)	-1 °C	0.949 °C
OTUD7B (UniProt Q6GQQ9)	-0.667 °C	-0.278 °C
UniProt Q63ZY6		-0.143 °C
UniProt Q8NFT6	1.37 °C	
GAN (UniProt Q9H2C0)	-0.441 °C	
UniProt O15020	-0.618 °C	1.26 °C
GSR (UniProt P00390)	-0.81 °C	1.55 °C
UniProt Q9NX01	-1.99 °C	0.784 °C
NDUFAB1 (UniProt O14561)	3.32 °C	-2.26 °C
ALDH6A1 (UniProt Q02252)	-2.76 °C	1.74 °C
PPP1R21 (UniProt Q6ZMI0)	0.021 °C	-0.5 °C
INPP5K (UniProt Q9BT40)	0.52 °C	
NHSL1 (UniProt Q5SYE7)	0.102 °C	-3.1 °C

Target	melting temperature shift [1]	melting temperature shift [2]
UniProt P78559	-0.00323 °C	0.266 °C
RPL18 (UniProt Q07020)	0.138 °C	-0.319 °C
TIMMDC1 (UniProt Q9NPL8)	0.491 °C	
TMEM192 (UniProt Q8IY95)	-0.425 °C	
DAAM1 (UniProt Q9Y4D1)	0.834 °C	-0.427 °C
GEMIN8 (UniProt Q9NWZ8)	-1.18 °C	4.89 °C
ZC3H15 (UniProt Q8WU90)	0.205 °C	-0.256 °C
FBL (UniProt P22087)	0.72 °C	0.198 °C
A0A0B4J2D5	1.07 °C	-0.21 °C
DIS3 (UniProt Q9Y2L1)	-0.747 °C	-0.455 °C
UniProt P24001	1.01 °C	-0.358 °C
SORT1 (UniProt Q99523)	1.09 °C	
UBIAD1 (UniProt Q9Y5Z9)		-0.261 °C
UniProt Q9H361	-0.315 °C	0.145 °C
LACTB (UniProt P83111)	0.661 °C	-1.04 °C
ACTR1A (UniProt P61163)	-0.499 °C	0.0686 °C
UBA5 (UniProt Q9GZZ9)	-0.698 °C	-1.24 °C
LEO1 (UniProt Q8WVC0)	-0.116 °C	1.25 °C
PPHLN1 (UniProt Q8NEY8)	1.24 °C	
MIER1 (UniProt Q8N108)	-0.455 °C	2.21 °C
ZC3H7B (UniProt Q9UGR2)	0.787 °C	-0.249 °C
